# The list shows a part of the results. Small differences around the control level are noise.
# Amino acid sequences for entries named in this document (tags omitted). A change or cut given only in a name is not applied to a line headed by its entry.
# UniProt Q8N0V3: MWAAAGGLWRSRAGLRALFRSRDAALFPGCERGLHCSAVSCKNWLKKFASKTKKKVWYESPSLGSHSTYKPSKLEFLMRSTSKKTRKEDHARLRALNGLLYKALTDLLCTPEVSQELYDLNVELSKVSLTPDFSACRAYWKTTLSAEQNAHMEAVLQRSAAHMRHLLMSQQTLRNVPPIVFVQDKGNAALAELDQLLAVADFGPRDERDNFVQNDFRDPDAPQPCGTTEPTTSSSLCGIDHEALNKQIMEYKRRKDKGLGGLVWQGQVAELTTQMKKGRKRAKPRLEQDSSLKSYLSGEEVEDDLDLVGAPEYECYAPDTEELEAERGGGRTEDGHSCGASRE
# UniProt Q8IX15: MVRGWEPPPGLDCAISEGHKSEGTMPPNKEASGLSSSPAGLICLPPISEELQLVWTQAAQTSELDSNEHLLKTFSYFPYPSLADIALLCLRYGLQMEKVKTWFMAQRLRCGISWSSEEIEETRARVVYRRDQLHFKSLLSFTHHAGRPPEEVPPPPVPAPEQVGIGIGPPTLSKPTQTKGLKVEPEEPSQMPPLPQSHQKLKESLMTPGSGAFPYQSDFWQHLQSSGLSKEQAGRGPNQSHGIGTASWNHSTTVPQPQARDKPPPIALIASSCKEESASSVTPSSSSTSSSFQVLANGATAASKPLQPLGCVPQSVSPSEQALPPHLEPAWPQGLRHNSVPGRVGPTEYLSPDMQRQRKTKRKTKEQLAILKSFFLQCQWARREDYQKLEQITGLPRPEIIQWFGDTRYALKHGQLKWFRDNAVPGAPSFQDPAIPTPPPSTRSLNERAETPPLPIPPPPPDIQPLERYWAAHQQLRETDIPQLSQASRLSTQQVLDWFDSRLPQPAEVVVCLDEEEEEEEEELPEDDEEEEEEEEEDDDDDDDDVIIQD
# UniProt Q8N122, whole entry: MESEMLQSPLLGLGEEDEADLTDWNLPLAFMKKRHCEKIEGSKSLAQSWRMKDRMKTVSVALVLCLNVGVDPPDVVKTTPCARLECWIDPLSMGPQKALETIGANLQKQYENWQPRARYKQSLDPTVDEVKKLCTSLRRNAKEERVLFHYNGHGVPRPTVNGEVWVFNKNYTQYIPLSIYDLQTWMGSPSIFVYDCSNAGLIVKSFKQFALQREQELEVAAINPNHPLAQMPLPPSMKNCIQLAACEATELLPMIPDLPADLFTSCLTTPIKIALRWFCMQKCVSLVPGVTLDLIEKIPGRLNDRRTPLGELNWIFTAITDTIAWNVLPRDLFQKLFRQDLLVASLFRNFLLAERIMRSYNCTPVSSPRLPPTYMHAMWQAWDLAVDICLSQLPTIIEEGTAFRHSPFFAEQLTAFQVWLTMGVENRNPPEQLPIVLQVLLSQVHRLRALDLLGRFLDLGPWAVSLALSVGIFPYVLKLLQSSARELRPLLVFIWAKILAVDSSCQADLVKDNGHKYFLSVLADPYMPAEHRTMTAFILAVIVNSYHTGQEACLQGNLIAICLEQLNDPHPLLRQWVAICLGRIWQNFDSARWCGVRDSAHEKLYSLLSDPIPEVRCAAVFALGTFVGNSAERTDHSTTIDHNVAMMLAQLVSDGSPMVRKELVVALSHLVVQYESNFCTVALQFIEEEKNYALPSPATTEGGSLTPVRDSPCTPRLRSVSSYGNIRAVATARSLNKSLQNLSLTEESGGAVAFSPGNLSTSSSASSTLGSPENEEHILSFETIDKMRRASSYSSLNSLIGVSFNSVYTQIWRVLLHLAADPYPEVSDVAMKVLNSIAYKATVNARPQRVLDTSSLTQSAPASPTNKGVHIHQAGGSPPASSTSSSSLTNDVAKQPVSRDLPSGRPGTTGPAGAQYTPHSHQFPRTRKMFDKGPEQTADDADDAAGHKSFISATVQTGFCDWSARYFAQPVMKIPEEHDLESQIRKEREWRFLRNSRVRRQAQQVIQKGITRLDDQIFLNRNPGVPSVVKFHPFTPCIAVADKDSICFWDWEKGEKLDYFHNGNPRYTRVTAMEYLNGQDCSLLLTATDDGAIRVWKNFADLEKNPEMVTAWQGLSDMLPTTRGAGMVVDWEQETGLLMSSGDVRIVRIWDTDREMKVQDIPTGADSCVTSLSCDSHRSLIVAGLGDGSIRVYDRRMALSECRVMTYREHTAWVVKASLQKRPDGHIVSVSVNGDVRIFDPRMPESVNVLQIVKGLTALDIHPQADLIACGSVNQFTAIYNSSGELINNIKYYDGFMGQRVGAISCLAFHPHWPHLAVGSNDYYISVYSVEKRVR
# UniProt Q8N183: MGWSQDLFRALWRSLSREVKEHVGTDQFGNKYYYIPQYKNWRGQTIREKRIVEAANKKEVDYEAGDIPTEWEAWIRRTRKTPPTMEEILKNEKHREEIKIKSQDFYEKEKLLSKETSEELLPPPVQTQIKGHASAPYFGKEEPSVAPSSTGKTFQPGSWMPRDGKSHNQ
# UniProt Q8N3J3: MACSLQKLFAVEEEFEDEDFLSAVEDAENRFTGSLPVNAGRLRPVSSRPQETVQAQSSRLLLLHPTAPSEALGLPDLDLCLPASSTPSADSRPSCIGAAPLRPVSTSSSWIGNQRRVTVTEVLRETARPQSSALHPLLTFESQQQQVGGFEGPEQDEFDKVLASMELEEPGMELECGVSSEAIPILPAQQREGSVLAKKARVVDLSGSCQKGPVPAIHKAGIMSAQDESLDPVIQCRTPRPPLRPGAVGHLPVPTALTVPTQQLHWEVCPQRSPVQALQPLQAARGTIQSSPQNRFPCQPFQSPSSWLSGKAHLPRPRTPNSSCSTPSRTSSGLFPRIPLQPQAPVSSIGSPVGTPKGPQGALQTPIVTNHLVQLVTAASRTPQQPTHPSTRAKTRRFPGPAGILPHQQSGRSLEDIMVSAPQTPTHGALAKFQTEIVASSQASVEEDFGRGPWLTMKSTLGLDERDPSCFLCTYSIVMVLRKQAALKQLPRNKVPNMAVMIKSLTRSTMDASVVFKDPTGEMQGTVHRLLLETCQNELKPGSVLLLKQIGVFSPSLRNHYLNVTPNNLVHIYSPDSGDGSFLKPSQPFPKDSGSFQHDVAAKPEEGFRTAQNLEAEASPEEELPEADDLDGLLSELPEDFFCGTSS
# UniProt Q86Z02: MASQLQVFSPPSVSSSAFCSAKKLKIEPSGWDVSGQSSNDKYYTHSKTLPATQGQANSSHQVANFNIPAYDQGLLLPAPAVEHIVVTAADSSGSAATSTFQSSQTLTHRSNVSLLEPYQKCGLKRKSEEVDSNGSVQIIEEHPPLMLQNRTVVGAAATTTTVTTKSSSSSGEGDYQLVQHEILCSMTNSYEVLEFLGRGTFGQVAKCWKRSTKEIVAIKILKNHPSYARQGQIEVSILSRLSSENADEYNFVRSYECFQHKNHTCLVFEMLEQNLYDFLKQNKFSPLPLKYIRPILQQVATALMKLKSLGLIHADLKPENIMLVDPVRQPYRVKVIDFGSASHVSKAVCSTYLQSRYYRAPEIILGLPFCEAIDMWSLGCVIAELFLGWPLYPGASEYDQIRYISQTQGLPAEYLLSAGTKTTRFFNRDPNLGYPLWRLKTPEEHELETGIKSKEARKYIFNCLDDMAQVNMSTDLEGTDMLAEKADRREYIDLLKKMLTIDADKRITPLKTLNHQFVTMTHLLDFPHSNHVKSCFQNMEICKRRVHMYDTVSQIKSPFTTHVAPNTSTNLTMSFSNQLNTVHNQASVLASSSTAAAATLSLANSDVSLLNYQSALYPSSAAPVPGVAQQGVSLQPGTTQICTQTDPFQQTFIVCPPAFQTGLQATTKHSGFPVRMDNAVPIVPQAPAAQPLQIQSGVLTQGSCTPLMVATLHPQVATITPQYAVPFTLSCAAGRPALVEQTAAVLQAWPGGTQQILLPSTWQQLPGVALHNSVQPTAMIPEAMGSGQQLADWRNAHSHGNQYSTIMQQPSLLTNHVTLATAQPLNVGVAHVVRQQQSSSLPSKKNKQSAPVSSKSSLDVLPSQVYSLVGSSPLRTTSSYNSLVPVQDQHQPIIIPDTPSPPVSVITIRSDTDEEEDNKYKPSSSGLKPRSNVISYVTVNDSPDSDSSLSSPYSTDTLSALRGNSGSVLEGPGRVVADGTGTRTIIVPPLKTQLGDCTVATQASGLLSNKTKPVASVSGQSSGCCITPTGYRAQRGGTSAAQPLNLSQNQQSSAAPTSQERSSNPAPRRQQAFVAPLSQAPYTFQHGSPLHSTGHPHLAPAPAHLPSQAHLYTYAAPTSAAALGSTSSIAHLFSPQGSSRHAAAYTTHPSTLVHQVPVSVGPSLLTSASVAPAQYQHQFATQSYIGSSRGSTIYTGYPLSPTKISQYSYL
# UniProt Q8IVB5: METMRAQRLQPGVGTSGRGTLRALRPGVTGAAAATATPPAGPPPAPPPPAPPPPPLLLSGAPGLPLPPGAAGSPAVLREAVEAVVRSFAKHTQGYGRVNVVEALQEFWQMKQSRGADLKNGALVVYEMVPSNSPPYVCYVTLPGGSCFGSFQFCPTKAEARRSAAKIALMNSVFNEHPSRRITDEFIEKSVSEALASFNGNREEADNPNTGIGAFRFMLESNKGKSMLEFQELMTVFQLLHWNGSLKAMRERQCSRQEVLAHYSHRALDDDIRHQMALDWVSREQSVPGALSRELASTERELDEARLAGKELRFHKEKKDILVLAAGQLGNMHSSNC
# UniProt Q8IYB8: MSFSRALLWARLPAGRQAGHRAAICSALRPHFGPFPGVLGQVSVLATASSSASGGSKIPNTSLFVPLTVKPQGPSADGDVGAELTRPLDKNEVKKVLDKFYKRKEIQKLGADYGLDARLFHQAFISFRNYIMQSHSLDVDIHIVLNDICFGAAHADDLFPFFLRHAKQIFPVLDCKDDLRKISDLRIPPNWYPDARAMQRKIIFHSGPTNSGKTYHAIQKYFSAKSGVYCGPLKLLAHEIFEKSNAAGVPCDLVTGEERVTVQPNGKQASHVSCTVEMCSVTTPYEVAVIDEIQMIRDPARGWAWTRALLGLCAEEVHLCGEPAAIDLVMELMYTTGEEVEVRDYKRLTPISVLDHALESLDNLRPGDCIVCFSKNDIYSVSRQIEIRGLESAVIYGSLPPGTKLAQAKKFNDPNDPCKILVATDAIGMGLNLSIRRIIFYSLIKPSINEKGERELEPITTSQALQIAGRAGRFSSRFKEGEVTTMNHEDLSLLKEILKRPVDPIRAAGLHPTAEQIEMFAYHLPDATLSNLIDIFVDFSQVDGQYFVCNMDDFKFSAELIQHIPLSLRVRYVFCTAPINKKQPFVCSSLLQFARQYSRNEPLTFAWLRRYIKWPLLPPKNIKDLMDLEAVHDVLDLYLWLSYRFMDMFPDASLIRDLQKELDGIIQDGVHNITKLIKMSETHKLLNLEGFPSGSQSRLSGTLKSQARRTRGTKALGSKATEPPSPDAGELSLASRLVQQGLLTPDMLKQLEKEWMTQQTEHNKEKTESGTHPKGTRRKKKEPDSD
# UniProt Q86YJ7: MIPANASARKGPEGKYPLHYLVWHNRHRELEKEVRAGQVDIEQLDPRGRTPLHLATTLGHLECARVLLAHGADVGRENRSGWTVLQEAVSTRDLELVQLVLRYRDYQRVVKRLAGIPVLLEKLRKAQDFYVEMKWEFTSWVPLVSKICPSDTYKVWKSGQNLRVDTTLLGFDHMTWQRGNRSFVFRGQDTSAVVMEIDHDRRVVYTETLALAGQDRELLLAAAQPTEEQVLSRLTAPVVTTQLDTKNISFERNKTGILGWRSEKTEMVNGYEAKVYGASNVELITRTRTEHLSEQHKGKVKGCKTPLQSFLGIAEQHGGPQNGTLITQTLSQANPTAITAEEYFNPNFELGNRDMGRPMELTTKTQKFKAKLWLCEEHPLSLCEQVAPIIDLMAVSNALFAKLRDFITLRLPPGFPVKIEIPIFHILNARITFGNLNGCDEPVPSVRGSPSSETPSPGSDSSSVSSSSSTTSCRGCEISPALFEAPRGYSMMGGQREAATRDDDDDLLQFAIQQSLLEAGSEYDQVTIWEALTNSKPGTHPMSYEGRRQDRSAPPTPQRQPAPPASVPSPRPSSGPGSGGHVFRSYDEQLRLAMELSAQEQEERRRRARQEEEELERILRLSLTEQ
# UniProt Q8N2W9: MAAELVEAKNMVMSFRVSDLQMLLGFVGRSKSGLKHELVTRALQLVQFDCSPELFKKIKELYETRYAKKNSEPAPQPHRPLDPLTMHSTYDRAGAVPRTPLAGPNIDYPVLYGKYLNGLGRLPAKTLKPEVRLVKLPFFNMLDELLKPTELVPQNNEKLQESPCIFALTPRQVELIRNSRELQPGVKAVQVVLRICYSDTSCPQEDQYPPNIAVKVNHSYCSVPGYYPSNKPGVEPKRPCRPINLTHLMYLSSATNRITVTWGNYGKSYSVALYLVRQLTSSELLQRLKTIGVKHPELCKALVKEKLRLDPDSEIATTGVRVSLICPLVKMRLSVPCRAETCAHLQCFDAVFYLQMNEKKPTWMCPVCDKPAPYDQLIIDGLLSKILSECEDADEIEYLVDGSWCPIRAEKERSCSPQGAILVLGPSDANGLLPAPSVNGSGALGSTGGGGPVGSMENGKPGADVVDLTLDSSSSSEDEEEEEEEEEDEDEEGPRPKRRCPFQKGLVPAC
# Compound: CN[C@@H]1C[C@H]2O[C@@](C)([C@@H]1OC)n1c3ccccc3c3c4c(c5c6ccccc6n2c5c31)C(=O)NC4 [staurosporine]
# Test: log2 fold change of tryptic peptide abundance, ligand vs vehicle (limited proteolysis) (log2 ratio); higher = more trypsin-susceptible (destabilized)
# Settings: ligand concentration: 20 uM; sample: K562 cleared lysate; digestion: 4 min, 22 C (HT-PELSA RT4min, Orbitrap Astral)
row,Target,log2 fold change
1,"UniProt Q8N0V3 (peptide sequence: VSLTPDFSACR, peptide start residue: 127)",-0.138
2,"KLHDC8B (peptide sequence: VYGTVAHQDGHLLVLGGCGR, peptide start residue: 22) (UniProt Q8IXV7)",-0.317
3,"ERC1 (peptide sequence: RLAEAEMHVHHLESLLEQK, peptide start residue: 335) (UniProt Q8IUD2)",-0.42
4,"HOMEZ (peptide sequence: LSTQQVLDWFDSR, peptide start residue: 490) (UniProt Q8IX15)",0.302
5,"RPTOR (peptide sequence: SVSSYGNIR, peptide start residue: 719) (UniProt Q8N122)",0.343
6,"NDUFAF2 (peptide sequence: ETSEELLPPPVQTQIK, peptide start residue: 115) (UniProt Q8N183)",-0.373
7,"C17orf53 (peptide sequence: LRPVSSRPQETVQAQSSR, peptide start residue: 42) (UniProt Q8N3J3)",-0.337
8,"ANKRD13A (peptide sequence: ELEEWELR, peptide start residue: 564) (UniProt Q8IZ07)",0.18
9,"CHPF (peptide sequence: AHVAELER, peptide start residue: 568) (UniProt Q8IZ52)",0.485
10,"PHC2 (peptide sequence: DLVGMGHHFLPSEPTK, peptide start residue: 778) (UniProt Q8IXK0)",0.115
11,"CEP57L1 (peptide sequence: NSSFHPIR, peptide start residue: 436) (UniProt Q8IYX8)",0.461
12,"DIS3L2 (peptide sequence: QAFDVLVLR, peptide start residue: 780) (UniProt Q8IYB7)",-0.437
13,"ASXL1 (peptide sequence: SGTSPLACLNAMLHSNSR, peptide start residue: 48) (UniProt Q8IXJ9)",0.333
14,"HIPK1 (peptide sequence: VVADGTGTR, peptide start residue: 975) (UniProt Q86Z02)",-0.24
15,"LIX1L (peptide sequence: IALMNSVFNEHPSRR, peptide start residue: 167) (UniProt Q8IVB5)",0.12
16,"UniProt Q8N0X7 (peptide sequence: LQANWNR, peptide start residue: 335)",0.231
17,"UniProt Q8N371 (peptide sequence: AGDTHCPAEPLAR, peptide start residue: 2)",-0.578
18,"REXO1 (peptide sequence: EFGGKVPTVIR, peptide start residue: 808) (UniProt Q8N1G1)",-0.856
19,"UniProt Q8IVS2 (peptide sequence: KPLVSVYSNVHAHRYR, peptide start residue: 292)",-0.172
20,"KIAA0319L (peptide sequence: ILDATDQESLELKPTSR, peptide start residue: 970) (UniProt Q8IZA0)",-0.0412
21,"SUPV3L1 (peptide sequence: ELEPITTSQALQIAGR, peptide start residue: 455) (UniProt Q8IYB8)",0.493
22,"ANKRD13B (peptide sequence: VYGASNVELITR, peptide start residue: 275) (UniProt Q86YJ7)",-0.326
23,"UniProt Q86XN6 (peptide sequence: AFSQGLLTFR, peptide start residue: 2)",-0.323
24,"RHOT2 (peptide sequence: SCFGHPLAPQALEDVK, peptide start residue: 215) (UniProt Q8IXI1)",0.14
25,"CNTROB (peptide sequence: QLMEVSQLLR, peptide start residue: 803) (UniProt Q8N137)",-0.192
26,"UniProt Q8IVC4 (peptide sequence: VIQHQDTHSEGKPR, peptide start residue: 118)",-1.31
27,"PIAS4 (peptide sequence: NMVMSFR, peptide start residue: 10) (UniProt Q8N2W9)",0.187
28,"UEVLD (peptide sequence: QVDLLAYIAK, peptide start residue: 152) (UniProt Q8IX04)",-0.13

# Random excerpt: two entries already listed, in no set order.
row,Target,log2 fold change
9,"CHPF (peptide sequence: AHVAELER, peptide start residue: 568) (UniProt Q8IZ52)",0.485
6,"NDUFAF2 (peptide sequence: ETSEELLPPPVQTQIK, peptide start residue: 115) (UniProt Q8N183)",-0.373

# — the supplement of paper PMC12819154, “High-throughput peptide-centric local stability assay extends protein–ligand identification to membrane proteins, tissues and bacteria” (Nature Structural & Molecular Biology, 2025)
